Test results taken from US12161728.
These are yes or no findings as the source states them, for the method shown. For some assays here: Binding seen in cells or lysates may run through a third protein. Some results given as binding are weak or reduced against the parent protein; the word gives no strength. For some assays here: Tags and fused reporters may be left off the sequences shown.

Amino acid sequences for entries named in this document (tags omitted). Residues count along the entry.
UniProt Q13148: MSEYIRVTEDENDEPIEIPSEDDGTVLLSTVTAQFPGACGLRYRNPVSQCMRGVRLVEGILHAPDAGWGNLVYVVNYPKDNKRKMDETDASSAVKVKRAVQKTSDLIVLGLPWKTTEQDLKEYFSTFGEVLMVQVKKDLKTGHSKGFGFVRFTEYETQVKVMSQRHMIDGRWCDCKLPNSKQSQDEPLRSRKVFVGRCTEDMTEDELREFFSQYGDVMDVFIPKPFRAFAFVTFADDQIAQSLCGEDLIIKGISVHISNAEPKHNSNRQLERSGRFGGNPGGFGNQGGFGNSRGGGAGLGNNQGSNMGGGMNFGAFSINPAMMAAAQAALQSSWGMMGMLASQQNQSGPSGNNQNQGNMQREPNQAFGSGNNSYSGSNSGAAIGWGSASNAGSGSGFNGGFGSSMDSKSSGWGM
UniProt P63208, residues 2-163: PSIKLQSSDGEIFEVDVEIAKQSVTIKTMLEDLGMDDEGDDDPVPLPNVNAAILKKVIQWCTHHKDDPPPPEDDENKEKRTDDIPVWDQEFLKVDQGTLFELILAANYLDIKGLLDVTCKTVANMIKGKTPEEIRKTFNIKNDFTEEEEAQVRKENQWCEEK
UniProt Q13616: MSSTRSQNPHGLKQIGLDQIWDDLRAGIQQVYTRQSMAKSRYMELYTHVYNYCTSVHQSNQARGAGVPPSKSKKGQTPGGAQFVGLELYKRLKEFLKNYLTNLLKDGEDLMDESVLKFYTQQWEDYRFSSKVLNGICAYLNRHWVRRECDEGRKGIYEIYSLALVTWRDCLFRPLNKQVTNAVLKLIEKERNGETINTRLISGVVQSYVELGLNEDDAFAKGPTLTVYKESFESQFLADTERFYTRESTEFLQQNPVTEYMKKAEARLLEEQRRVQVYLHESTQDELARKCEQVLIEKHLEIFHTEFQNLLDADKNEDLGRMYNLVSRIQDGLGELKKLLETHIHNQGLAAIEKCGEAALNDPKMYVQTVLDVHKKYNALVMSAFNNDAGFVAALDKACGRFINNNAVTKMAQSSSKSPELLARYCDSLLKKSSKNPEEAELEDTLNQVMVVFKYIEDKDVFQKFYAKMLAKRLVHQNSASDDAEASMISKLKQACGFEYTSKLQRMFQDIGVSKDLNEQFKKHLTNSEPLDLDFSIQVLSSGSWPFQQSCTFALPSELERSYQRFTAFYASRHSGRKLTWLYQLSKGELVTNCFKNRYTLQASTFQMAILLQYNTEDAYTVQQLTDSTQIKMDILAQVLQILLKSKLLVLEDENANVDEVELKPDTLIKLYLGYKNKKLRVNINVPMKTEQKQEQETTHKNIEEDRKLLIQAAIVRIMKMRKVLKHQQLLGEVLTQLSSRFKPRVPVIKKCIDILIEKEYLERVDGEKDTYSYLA
UniProt Q921F2: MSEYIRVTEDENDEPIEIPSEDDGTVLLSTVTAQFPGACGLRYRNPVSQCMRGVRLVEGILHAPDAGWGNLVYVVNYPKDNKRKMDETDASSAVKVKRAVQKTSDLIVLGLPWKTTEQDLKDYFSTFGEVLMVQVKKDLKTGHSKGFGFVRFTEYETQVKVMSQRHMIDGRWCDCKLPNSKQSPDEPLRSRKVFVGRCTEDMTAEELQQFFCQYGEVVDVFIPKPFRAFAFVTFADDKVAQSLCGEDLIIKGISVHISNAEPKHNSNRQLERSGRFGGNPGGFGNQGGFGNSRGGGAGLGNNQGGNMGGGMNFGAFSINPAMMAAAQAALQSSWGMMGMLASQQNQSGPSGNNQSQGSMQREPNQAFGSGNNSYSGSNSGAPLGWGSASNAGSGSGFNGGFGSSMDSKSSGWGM

Legend:
[1] = molecular target: endogenous TDP-43 (TAR DNA-binding protein of 43 kDa) in HEK293 / Flp-In T-Rex 293 cells (UniProt Q13148); test: BioID/MS and IP/MS in HEK293 cells, validated by immunoblot
[2] = molecular target: endogenous TDP-43 (TAR DNA-binding protein of 43 kDa) in HEK293 / Flp-In T-Rex 293 cells (UniProt Q13148); test: BioID proximity biotinylation, streptavidin capture, immunoblot
Skp1 = Skp1 (UniProt P63208); test: proteins common to BioID/MS and IP/MS, HEK293 cells
Cul1 = Cul1 (UniProt Q13616); test: as above
[3] = molecular target: endogenous TDP-43 in Neuro2A cells (UniProt Q921F2); test: co-immunoprecipitation in Neuro2a cells
[4] = molecular target: endogenous TDP-43 in Neuro2A cells (UniProt Q921F2); test: co-immunoprecipitation, western blot
TDP-43-HA [5] = molecular target: TDP-43-HA (UniProt Q13148); test: anti-FLAG M2 co-immunoprecipitation from co-transfected HEK293 cells
TDP-43-HA [6] = molecular target: TDP-43-HA (UniProt Q13148); test: co-immunoprecipitation, western blot

B1: FLAG-BirA*-Cyclin F (protein, UniProt P41002 1-786, looked up, not shown: small tags and cut ends)
chain: MGSGGVVHCRCAKCFCYPTKRRIRRRPRNLTILSLPEDVLFHILKWLSVEDILAVRAVHSQLKDLVDNHASVWACASFQELWPSPGNLKLFERAAEKGNFEAAVKLGIAYLYNEGLSVSDEARAEVNGLKASRFFSLAERLNVGAAPFIWLFIRPPWSVSGSCCKAVVHESLRAECQLQRTHKASILHCLGRVLSLFEDEEKQQQAHDLFEEAAHQGCLTSSYLLWESDRRTDVSDPGRCLHSFRKLRDYAAKGCWEAQLSLAKACANANQLGLEVRASSEIVCQLFQASQAVSKQQVFSVQKGLNDTMRYILIDWLVEVATMKDFTSLCLHLTVECVDRYLRRRLVPRYRLQLLGIACMVICTRFISKEILTIREAVWLTDNTYKYEDLVRMMGEIVSALEGKIRVPTVVDYKEVLLTLVPVELRTQHLCSFLCELSLLHTSLSAYAPARLAAAALLLARLTHGQTQPWTTQLWDLTGFSYEDLIPCVLSLHKKCFHDDAPKDYRQVSLTAVKQRFEDKRYGEISQEEVLSYSQLCAALGVTQDSPDPPTFLSTGEIHAFLSSPSGRRTKRKRENSLQEDRGSFVTTPTAELSSQEETLLGSFLDWSLDCCSGYEGDQESEGEKEGDVTAPSGILDVTVVYLNPEQHCCQESSDEEACPEDKGPQDPQALALDTQIPATPGPKPLVRTSREPGKDVTTSGYSSVSTASPTSSVDGGLGALPQPTSVLSLDSDSHTQPCHHQARKSCLQCRPPSPPESSVPQQQVKRINLCIHSEEEDMNLGLVRL
- binding [1]: binds
- binding [2]: binds
- binding (Skp1): binds
- binding (Cul1): binds

B2: mCherry-Cyclin F^WT (protein, UniProt P41002 1-786, looked up, not shown: large carriers)
chain: MGSGGVVHCRCAKCFCYPTKRRIRRRPRNLTILSLPEDVLFHILKWLSVEDILAVRAVHSQLKDLVDNHASVWACASFQELWPSPGNLKLFERAAEKGNFEAAVKLGIAYLYNEGLSVSDEARAEVNGLKASRFFSLAERLNVGAAPFIWLFIRPPWSVSGSCCKAVVHESLRAECQLQRTHKASILHCLGRVLSLFEDEEKQQQAHDLFEEAAHQGCLTSSYLLWESDRRTDVSDPGRCLHSFRKLRDYAAKGCWEAQLSLAKACANANQLGLEVRASSEIVCQLFQASQAVSKQQVFSVQKGLNDTMRYILIDWLVEVATMKDFTSLCLHLTVECVDRYLRRRLVPRYRLQLLGIACMVICTRFISKEILTIREAVWLTDNTYKYEDLVRMMGEIVSALEGKIRVPTVVDYKEVLLTLVPVELRTQHLCSFLCELSLLHTSLSAYAPARLAAAALLLARLTHGQTQPWTTQLWDLTGFSYEDLIPCVLSLHKKCFHDDAPKDYRQVSLTAVKQRFEDKRYGEISQEEVLSYSQLCAALGVTQDSPDPPTFLSTGEIHAFLSSPSGRRTKRKRENSLQEDRGSFVTTPTAELSSQEETLLGSFLDWSLDCCSGYEGDQESEGEKEGDVTAPSGILDVTVVYLNPEQHCCQESSDEEACPEDKGPQDPQALALDTQIPATPGPKPLVRTSREPGKDVTTSGYSSVSTASPTSSVDGGLGALPQPTSVLSLDSDSHTQPCHHQARKSCLQCRPPSPPESSVPQQQVKRINLCIHSEEEDMNLGLVRL
- binding [3]: binds
- binding [4]: binds

B3: Cyclin F-flag (protein, UniProt P41002 1-786, looked up, not shown: small tags and cut ends)
chain: MGSGGVVHCRCAKCFCYPTKRRIRRRPRNLTILSLPEDVLFHILKWLSVEDILAVRAVHSQLKDLVDNHASVWACASFQELWPSPGNLKLFERAAEKGNFEAAVKLGIAYLYNEGLSVSDEARAEVNGLKASRFFSLAERLNVGAAPFIWLFIRPPWSVSGSCCKAVVHESLRAECQLQRTHKASILHCLGRVLSLFEDEEKQQQAHDLFEEAAHQGCLTSSYLLWESDRRTDVSDPGRCLHSFRKLRDYAAKGCWEAQLSLAKACANANQLGLEVRASSEIVCQLFQASQAVSKQQVFSVQKGLNDTMRYILIDWLVEVATMKDFTSLCLHLTVECVDRYLRRRLVPRYRLQLLGIACMVICTRFISKEILTIREAVWLTDNTYKYEDLVRMMGEIVSALEGKIRVPTVVDYKEVLLTLVPVELRTQHLCSFLCELSLLHTSLSAYAPARLAAAALLLARLTHGQTQPWTTQLWDLTGFSYEDLIPCVLSLHKKCFHDDAPKDYRQVSLTAVKQRFEDKRYGEISQEEVLSYSQLCAALGVTQDSPDPPTFLSTGEIHAFLSSPSGRRTKRKRENSLQEDRGSFVTTPTAELSSQEETLLGSFLDWSLDCCSGYEGDQESEGEKEGDVTAPSGILDVTVVYLNPEQHCCQESSDEEACPEDKGPQDPQALALDTQIPATPGPKPLVRTSREPGKDVTTSGYSSVSTASPTSSVDGGLGALPQPTSVLSLDSDSHTQPCHHQARKSCLQCRPPSPPESSVPQQQVKRINLCIHSEEEDMNLGLVRL
- binding (TDP-43-HA [5]): binds
- binding (TDP-43-HA [6]): binds
